PubChem BioAssay AID493014 (National Center for Advancing Translational Sciences (NCATS), 2011)
This is one part of the list. These are further read-outs of the screen, such as a control signal, another cell line or another target. No call is given for them. Compounds called inactive in the main read-out are mostly missing here. The note in brackets gives the kind of curve behind each potency; many fits are weak.

Assay: qHTS Assay to Find Inhibitors of Chronic Active B-Cell Receptor Signaling
Settings: ABC-DLBCL IkBa-CBG/CBR reporter, luminescence ratio (green luciferase fused to IkBa over red control in TMD8 lymphoma cells), 4 h
Method in brief: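 Compounds up to 46 uM were incubated four hours with TMD8 cells whose green CBG68 luciferase is fused to IkappaBalpha; red CBR luminescence normalised the signal, and concentration-effect curves were fitted to fusion, red and ratio data.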

[1] = measured here: CBR red luminescence, cell number
[2] = measured here: IkBa-CBG green luminescence

Row | SMILES | AC50 [1] | AC50 [2]
1 | CCCCN1C(=O)/C(=C2/C=CC=CN2C)SC1=S | 2.06 µM [rising, partial curve, poor fit] | –
2 | Cc1ccc(N2C(=O)N(CC(=O)Nc3cccc(C)c3C)C(=O)C2C)cc1 (configuration not stated) | 20.6 µM [rising, single point] | –
3 | COc1cccc(/C=C2\SC(=O)N(CC(=O)NC3C=CS(=O)(=O)C3)C2=O)c1 (configuration not stated) | 7.08 µM [falling, partial curve] | –
4 | O=C(NCc1ccccc1)c1nncc(-c2ccccc2)n1 | 16.4 µM [falling, single point] | –
5 | Cn1ncc([N+](=O)[O-])c1C(=O)Nc1ccc(-c2nc3ccccc3[nH]2)cc1 | 32.6 µM [falling, single point] | –
6 | O=C(/C=C/c1cccs1)c1ccc(N2CCOCC2)cc1 | 14.1 µM [falling, single point] | –
7 | COCCn1c(C23CC4CC(CC(C4)C2)C3)n[nH]c1=S | 0.116 µM [falling, full curve, poor fit] | –
8 | COc1ccccc1N1C(C)=CC(=C(C#N)c2nc3ccccc3s2)C=C1C | 1.84 µM [falling, single point] | –
9 | O=C(NC1CCCC1)c1ccc(S(=O)(=O)N2CCOCC2)cc1 | 16.4 µM [falling, partial curve, poor fit] | –
10 | CCCc1nc2ccc(N)cc2c(=O)n1Cc1ccccc1Cl | 0.1 µM [rising, full curve, poor fit] | –
11 | COc1ccc(C(=O)Cn2nnc(-c3cccs3)n2)cc1 | 23.1 µM [falling, partial curve, poor fit] | –
12 | COc1cc(/C=N/O)ccc1OCc1ccc(Cl)cc1 | 35.5 µM [falling, single point] | –
13 | COc1ccc(C(C)=O)cc1COc1cccc2cccnc12 | 14.1 µM [rising, partial curve, poor fit] | 14.1 µM [falling, partial curve, poor fit]
14 | C=CCN(CC=C)c1cnn(-c2nc3ccccc3[nH]2)c(=O)c1Cl | 2.06 µM [falling, full curve] | –
15 | CCOc1ccc(NC(=O)c2ccco2)c([N+](=O)[O-])c1 | 1.84 µM [rising, partial curve, poor fit] | –
16 | CC(C)c1ccc(/C=N/NC(=O)c2nnn(-c3nonc3N)c2CSC2=NCCS2)cc1 | 32.6 µM [falling, partial curve, poor fit] | –
17 | CCCC(=O)N1c2ccccc2[C@@H](N(C(C)=O)c2ccccc2)C[C@H]1C | 0.501 µM [falling, full curve, poor fit] | –
18 | Cc1ccc(N(Cc2cc(=O)[nH]c3ccccc23)C(=O)CCl)cc1 | 7.94 µM [falling, partial curve] | –
19 | Cc1onc(-c2ccccc2)c1C(=O)NC(=S)NNC(=O)c1ccco1 | 15.8 µM [falling, single point] | –
20 | CCCc1nc2ccccc2c(C(=O)OCC(=O)Nc2ccc(S(=O)(=O)N3CCOCC3)cc2)c1CC | 29.1 µM [falling, single point] | –
21 | Cn1ncc2c(Nc3ccc4ccccc4c3)ncnc21 | 0.631 µM [rising, full curve, poor fit] | –

Row | SMILES | AC50 [1] | AC50 [2]
22 | COC(=O)[C@]1(C)CCC[C@@]2(C)C3CC[C@]4(OC(C)=O)C[C@@]3(CCC21)CC4=NO (some centres not stated) | 25.9 µM [falling, single point] | –
23 | Cc1sc2ncnc(SCC#N)c2c1C | 11.2 µM [rising, partial curve, poor fit] | –
24 | C/C(CC(=O)Nc1ccc(OCc2ccccc2)cc1)=N\NC(=O)C(=O)Nc1ccccc1C | 1.41 µM [falling, full curve, poor fit] | –
25 | N#C/C(=C\c1cc([N+](=O)[O-])ccc1Cl)C(N)=O | 35.5 µM [falling, partial curve, poor fit] | 35.5 µM [falling, single point]
26 | CC(NCCC1(Cc2ccccc2Cl)CCOC(C)(C)C1)c1cccs1 (configuration not stated) | 35.5 µM [falling, single point] | –
27 | Cc1csc(NC(=O)CCN2C(=O)c3ccccc3S2(=O)=O)n1 | 23.1 µM [falling, single point] | –
28 | Cc1ccc(Cl)cc1N1CCN(C(c2cccnc2)c2nnnn2C2CCCCC2)CC1 (configuration not stated) | 13 µM [rising, partial curve, poor fit] | –
29 | O=C(/C=C\c1cccs1)c1c(O)ccc2ccc(=O)oc12 | 10.3 µM [falling, partial curve, poor fit] | –
30 | CCOc1ccc(CNC(=O)CCCc2cn(C)c3ccccc23)cc1OC | 4.61 µM [rising, full curve] | –
31 | O=C(O)c1cccc(N/N=C/c2cccs2)c1 | 0.58 µM [falling, full curve] | –
32 | Cc1onc(-c2ccccc2Cl)c1C(=O)NC(=S)NCc1cccnc1 | 11.2 µM [falling, partial curve] | –
33 | COc1cccc(/C(O)=C/c2nc3ccc(C(=O)NCCc4ccc(Cl)cc4)cc3[nH]c2=O)c1 | 9.2 µM [falling, partial curve] | –
34 | CCOc1ccc(NS(=O)(=O)c2ccc(NC(=O)c3cccnc3)c(OC)c2)cc1 | 35.5 µM [falling, single point] | –
35 | Cc1cccc(NC(=O)CSCC(=O)NCc2cccc(C(F)(F)F)c2)c1 | 3.98 µM [falling, single point] | –
36 | COc1ccc(NC(=O)CSc2nnc(-c3ccccc3)n2Cc2ccco2)c(OC)c1 | 4.47 µM [falling, partial curve, poor fit] | –
37 | COc1ccc2ccccc2c1/C=N\NC(=O)c1ccc(C)s1 | 7.94 µM [falling, partial curve, poor fit] | –
38 | CNC(=S)N/N=C(\C)c1ccc(Cl)c(Cl)c1 | 35.5 µM [rising, single point] | 15.8 µM [falling, partial curve]
39 | C/C(=N/NC(=O)c1ccc(C)nc1)c1ccc2c(c1)CCCC2 | 35.5 µM [falling, single point] | –
40 | COc1ccc(NC(=O)n2ncc3c(C)cccc32)cc1 | 11.2 µM [falling, partial curve] | –
41 | CC(=O)n1cc(N(C(=O)CCl)c2ccccc2)c2ccccc21 | 5.62 µM [falling, partial curve, poor fit] | 12.6 µM [rising, partial curve, poor fit]
42 | Cc1ccc(S(=O)(=O)N/N=C/c2ccc3nccnc3c2)cc1 | 12.6 µM [falling, single point] | –

Among those listed so far, three have a nitro group on carbon.
Row | SMILES | AC50 [1] | AC50 [2]
5 | Cn1ncc([N+](=O)[O-])c1C(=O)Nc1ccc(-c2nc3ccccc3[nH]2)cc1 | 32.6 µM [falling, single point] | –
15 | CCOc1ccc(NC(=O)c2ccco2)c([N+](=O)[O-])c1 | 1.84 µM [rising, partial curve, poor fit] | –
25 | N#C/C(=C\c1cc([N+](=O)[O-])ccc1Cl)C(N)=O | 35.5 µM [falling, partial curve, poor fit] | 35.5 µM [falling, single point]

Next records

Row | SMILES | AC50 [1] | AC50 [2]
43 | O=C(c1cccn2c(=O)c3ccccc3nc12)N1CCN(c2ccccn2)CC1 | 6.51 µM [falling, single point] | –
44 | COc1ccc(C(=O)NNC(=O)C(=O)Nc2cccc3ccccc23)cc1 | 4.47 µM [falling, partial curve] | –
45 | CNC(=O)N1CCC(C(=O)c2c(C)c(C)c(C)c(C)c2C)CC1 | 10 µM [rising, partial curve] | –
46 | CCOC(=O)N1CCC(NC(=O)c2cc3sccc3n2CC)CC1 | 1.12 µM [falling, partial curve, poor fit] | –
47 | Cc1cc(NC(=O)CSc2nnc(-c3ccc(Br)o3)n2Cc2ccccc2)no1 | 12.6 µM [falling, single point] | –
48 | CCOC(=O)Cc1csc(NC(=O)/C=C/c2ccc(Cl)cc2)n1 | 20 µM [falling, single point] | –
49 | CS(=O)(=O)N1N=C(c2cccs2)CC1c1ccccc1O (configuration not stated) | 35.5 µM [rising, single point] | –
50 | CCCc1ccc2oc(C(=O)N3CCN(c4cnccn4)CC3)c(C)c2c1 | 7.08 µM [falling, partial curve] | –
51 | COc1ccc(Nc2nccc(-c3cccc(N)c3)n2)cc1 | 2.82 µM [falling, full curve, poor fit] | 3.16 µM [rising, full curve, poor fit]
52 | CCN(CCNc1ccc(Cl)cc1[N+](=O)[O-])C(=O)c1cc([N+](=O)[O-])c(N(C)C)cc1OC | 9.2 µM [rising, partial curve, poor fit] | –
53 | COC(=O)CC1=NN(c2ccccc2)C(=O)C1 | 10 µM [falling, partial curve, poor fit] | –
54 | Cc1ccccc1NC(=O)COC(=O)CC1CCCC1 | 7.31 µM [falling, partial curve] | –
55 | O=C(Nc1ccc(Cl)cc1)Nc1ccccc1C(=O)O | 0.0794 µM [falling, full curve, poor fit] | –
56 | Oc1ccccc1C(Nc1nccs1)c1ccc2cccnc2c1O (configuration not stated) | 11.2 µM [falling, partial curve, poor fit] | –
57 | CC(C)N=C1NN=C(c2ccc(Cl)c(Cl)c2)CS1 | 12.6 µM [falling, partial curve, poor fit] | –
58 | COc1ccccc1C(=O)Nc1ccnn1C1CCN(Cc2cn(C)c3ccccc23)CC1 | 0.891 µM [falling, partial curve, poor fit] | –
59 | Cc1ccc(N2CCN(c3ncccc3[N+](=O)[O-])CC2)c(C)c1 | 12.6 µM [rising, partial curve, poor fit] | –
60 | c1ccc(CN=C2Nc3ccccc3CS2)nc1 | 25.1 µM [falling, single point] | –
61 | O=C(NCCc1nc2ccccc2[nH]1)c1ccc(Cl)c([N+](=O)[O-])c1 | 18.4 µM [falling, single point] | –
62 | COCCN1Cc2cccc(C(=O)Nc3ccc(S(=O)(=O)N4CCCCCC4)cc3)c2C1=O | 15.8 µM [rising, single point] | –
